No constants are given. Whether binding was seen depends on the method and setting. Binding seen in cells or lysates may run through a third protein. Here binding means that the protein was enriched with, or labelled near, the bait; the list need not be complete.
B1: catalase CatB, A. nidulans, endogenous (enzyme, UniProt P78619 16-722)
chain: VCPYMTGELGRRDTNPDATEATEEFLSEYYLDDTDSYLTTDVGGPIEDQQSLKAGARGSTLLEDFIFRQKIQRFDHERVPERAVHARGAGAHGVFTSYGDFSNITAASFLSAEGKETPVFVRFSTVAGSRGSSDLARDVHGFATRFYTDEGNFDIVGNNIPVFFIQDAIQFPDLIHAVKPKGDREIPQAATAHDAAWDFFSQQPSTLHTLLWAMAGHGIPRSFRHVDGFGVHTFRLVTEDGSTKLVKFHWKTLQGLASMVWEEAQQISGKNPDYMRQDLFESIEAGRYPEWELNVQIMDEEDQLRFGFDLFDPTKIVPEEYVPLTPLGKMTLNRNPRNYFAETEQVMFQPGHVVRGVDFTEDPLLQQGRLFSYLDTQLNRNGGPNFEQLPINQPRVAIHNNNRDGAGQMFIPLNPDAYSPNTLKGSTLKQANQTAGRGFFTAPDRTANGNLVRAKSSTFDDAWSQPRLFWNSLLPAEKQFVVNAIRFENANVKSDVVKNNVIVQLNRISNDLATRVAKAIGVDAPEPDNTYYHDNTTSNIGAFGHRLQSLAGLKIAVLASVDAEESFSAATALKAELSNDNLDVIVVAERFSNGVNQTYSASDAIQFDAVVVAPGAEKLFGAKSAANSSSTLYPAGRPLEILVDAFRFGKPVAALGSGSTAFDNAGINTAVEGVYVADAVDESFANNLEEGLTVFKFLDRFALDSDE
B2: Velvet A (VeA), A. nidulans, endogenous (protein, UniProt C8VTV4 1-573)
chain: MATLAAPPPPLGESGNSNSVSRITREGKKITYKLNIMQQPKRARACGQGSKSHTDRRPVDPPPVIELNIFESDPHDDSNKTDITFVYNANFFLFATLEPERPIATGKLMTNQGSPVLTGVPVAGVAYLDKPNRAGYFIFPDLSVRNEGSYRFSFHLFEQIKDPKDATEGTQPMPSPVPGKLSSPQEFLEFRLEVISNPFIVYSAKKFPGLTTSTPISRMIAEQGCRVRIRRDVRMRRRGDKRTEDYDYDNERGYNNRRPDQYAGSDAYANAPERPRSTSISTNMDPYSYPSRRPSAVEYGQPIAQPYQRPMASTPAPSSTPIPAPIPMPGPVALPPSTPSPASAHAPAPPSVPLAAPPPLHTPSYQSHLSFGATQTQYPAPQLSHIPQQTTTPTHPYSPRSSISHSRNQSISEYEPSMGYPGSQTRLSAERPSYGQPSQTTSLPPLRHSLEPSVNSRSKTPSNMITSLPPIQSLSELPSTTSQPSSAIGSSPANEPGPRLWETNSMLSKRTYEESFGHDDRPLYNGMRPDSESYPGGMQRRPSYERSSLLDGPDQMAYKRANGRMVSKPATMR

Sequences of proteins named here, by UniProt entry; tags and fusion partners are left off.
UniProt C8VTS4, whole entry: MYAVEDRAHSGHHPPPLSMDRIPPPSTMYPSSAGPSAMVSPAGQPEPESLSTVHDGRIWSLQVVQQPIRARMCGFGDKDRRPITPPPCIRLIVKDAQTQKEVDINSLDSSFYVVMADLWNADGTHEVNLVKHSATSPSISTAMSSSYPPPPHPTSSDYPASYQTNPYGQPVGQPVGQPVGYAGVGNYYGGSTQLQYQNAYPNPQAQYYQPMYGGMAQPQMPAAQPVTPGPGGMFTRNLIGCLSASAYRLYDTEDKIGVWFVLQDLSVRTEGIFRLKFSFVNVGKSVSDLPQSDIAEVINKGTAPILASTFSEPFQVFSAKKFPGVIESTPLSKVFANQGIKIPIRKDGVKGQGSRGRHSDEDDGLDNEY

Biological target: VelB-GFP (full length A. nidulans Velvet-like B fused to GFP) (Aspergillus nidulans) (UniProt C8VTS4)
Assay: affinity purification with mass spectrometry

| Binder | binding |
| --- | --- |
| B1 | binds |
| B2 | binds |

Reference: paper doi:10.1101/2025.02.27.640524 (bioRxiv, 2025)
